# Experimental data from PubChem BioAssay AID504467 (National Center for Advancing Translational Sciences (NCATS), 2011).
# The campaign covered roughly 330,000 compounds. About 7,700 (2.3%) were called active. Inconclusive means that the source gave no clear call. Such entries were picked first, then a sample of the others. The call rests on the fitted dose curve; in most records, active means well fitted inhibition curve with a large enough effect; inconclusive means small, poorly fitted or top-dose-only effect, or effect the other way; inactive means flat fitted curve, though single readings scatter. Potencies beside an inconclusive call are fits to weak or partial responses and may not hold up.
# Experiment: qHTS screen for small molecules that inhibit ELG1-dependent DNA repair in human embryonic kidney (HEK293T) cells expressing luciferase-tagged ELG1; further: nearly all actives have a fitted effect of over 55% in size
# Details: HEK293T ELG1-luciferase reporter, luminescence, 16 h, DNA damage induced by 5-fluorouridine; series mostly up to 46.1 µM
# Procedure, shortened: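 Cells (2,000 per well) received 5-fluorouridine plus test compound or DMSO and were incubated 16 hr at 37 °C, 5% CO2. Luciferase activity was read by luminescence 30 min after ONE-Glo addition; signal suppression marked inhibition of damage-induced ELG1 function.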
# Potency means the concentration at half of the fitted maximal effect.
row,Structure (SMILES),Potency
1,COCCNC(=O)C(c1ccncc1)N(Cc1ccccc1)C(=O)Cn1nnc2ccccc21 (stereo not given),"inconclusive: 16.4 µM [activator, partial curve]"
2,Cc1ccc2c(c1)N(CCCC(=O)Nc1cccc(C(F)(F)F)c1)C(=O)CO2,inactive
3,Cc1ccnc(NC(=S)NC(=O)/C=C/c2ccccc2)c1,"inconclusive: 13 µM [activator, partial curve]"
4,COC(=O)c1ccc(N2CCN(C)CC2)c(NC(=O)COc2cccc(C)c2)c1,inactive
5,COCCCNC(=O)Cc1ccc(S(=O)(=O)N2CCOCC2)s1,"inconclusive: 0.058 µM [activator, partial curve, poor fit]"
6,CC(=O)c1ccc(N(C(=O)CNC(=O)c2ccco2)C(C(=O)NCC2CCCO2)c2ccccc2)cc1 (stereo not given),"inconclusive: 23.1 µM [inhibitor, single point]"
7,Cc1ccc(C(=O)N/C(=C/c2ccco2)C(=O)N2CCOCC2)cc1,inactive
8,[O-][n+]1c(/C=C/c2ccccc2)ccc2ccccc21,"inconclusive: 2.59 µM [activator, full curve]"
9,CN(Cc1ccc(Cl)c(Cl)c1)C(=O)CN1C(=O)NC2(CCCC2)C1=O,inactive
10,Cc1ccc(-c2nnc(-c3ccccc3)o2)cc1,"inconclusive: 4.11 µM [activator, partial curve]"
11,Cc1ccc(NC(=O)COC(=O)Cc2csc(-c3cccc(F)c3)n2)cc1C,"inconclusive: 32.6 µM [activator, partial curve, poor fit]"
12,CCCCNc1nnc(SCC(=O)c2c(N)n(C3CC3)c(=O)[nH]c2=O)s1,inactive
13,O=C1OC(Nc2cc(Br)cc3cccnc23)c2ccccc21 (stereo not given),inactive
14,Cc1c(NN=C(C#N)C#N)c(=O)n(-c2ccccc2)n1C,active: 5.8 µM
15,Cc1ccccc1NC(=S)N1CCC(NC(=O)c2ccco2)CC1,inactive
16,COc1ccccc1N1CCN(/N=C\C(Br)=C\c2ccccc2)CC1,"inconclusive: 20.6 µM [activator, partial curve]"
17,CCN1CCN(c2ncc(C(=O)Nc3cc(Cl)c(OC)cc3OC)c3ccccc23)CC1,"inconclusive: 18.4 µM [inhibitor, partial curve, poor fit]"
18,O/N=C1\CCCc2c1nc(-c1ccccc1F)n2O,inactive
19,Cc1ccc(NC(=O)/C=C/c2ccc(Cl)cc2)nc1,inactive
20,CC(=O)c1ccc(NC(=O)COC(=O)c2ccccc2N=Nc2ccc(N(C)C)cc2)cc1,inactive
21,C#CCOCCOCCOCCNc1nc(N2CCN(C(=O)[C@H](CCC(=O)O)n3cc(CN)nn3)CC2)nc(N2CCN(C(=O)[C@H](CCC(=O)O)n3cc([C@@H](N)[C@H](C)CC)nn3)CC2)n1,"inconclusive: 23.1 µM [activator, partial curve, poor fit]"
22,O=C(Nc1ccccc1)N1CCCN(c2ccc(C(F)(F)F)cc2[N+](=O)[O-])CC1,"inconclusive: 29.1 µM [inhibitor, single point]"
23,Cc1nn(C)cc1/C=N/NC(=O)c1ccc2c(c1)OCO2,"inconclusive: 1.64 µM [inhibitor, partial curve, poor fit]"
24,O=C(N/N=C\c1ccc(-c2cccc(Cl)c2)o1)C(=O)NC1CCCC1,inactive

# 5 entries from above, set out differently:
row	Structure (SMILES)	Potency
1	COCCNC(=O)C(c1ccncc1)N(Cc1ccccc1)C(=O)Cn1nnc2ccccc21 (stereo not given)	inconclusive: 16.4 µM [activator, partial curve]
2	Cc1ccc2c(c1)N(CCCC(=O)Nc1cccc(C(F)(F)F)c1)C(=O)CO2	inactive
3	Cc1ccnc(NC(=S)NC(=O)/C=C/c2ccccc2)c1	inconclusive: 13 µM [activator, partial curve]
4	COC(=O)c1ccc(N2CCN(C)CC2)c(NC(=O)COc2cccc(C)c2)c1	inactive
5	COCCCNC(=O)Cc1ccc(S(=O)(=O)N2CCOCC2)s1	inconclusive: 0.058 µM [activator, partial curve, poor fit]

# Carrying on:

row,Structure (SMILES),Potency
1,C[C@@H]1CN=C2N(CCNC(=O)CCC3CCCCC3)[C@H](Cc3ccc(O)cc3)CN21,"inconclusive: 20.6 µM [inhibitor, single point]"
2,CCC1(CC)Cc2ccccc2-c2nc(CN(C)C)[nH]c(=O)c21,"inconclusive: 32.6 µM [inhibitor, partial curve, poor fit]"
3,O=C(NCCc1c[nH]c2ccccc12)C(=O)NCC(c1ccco1)N1CCN(c2ccccc2)CC1 (stereo not given),"inconclusive: 29.1 µM [inhibitor, single point]"
4,Cc1ccc(-c2csc(N3CCC[C@@H]3C(=O)NCCn3c(-c4ccncc4)nc4ccccc43)n2)cc1,active: 14.6 µM
5,Cc1cc(C)n2nc(SCC(=O)N3CCCC(C)C3)nc2n1 (stereo not given),"inconclusive: 5.8 µM [inhibitor, single point]"
6,COc1ccc(CNC(=O)c2cc(=O)c3c(C)cc(C)cc3o2)cc1,"inconclusive: 25.9 µM [inhibitor, partial curve]"
7,Cc1ccc(N(CC(=O)N2CCCCCC2)S(C)(=O)=O)cc1Cl,"inconclusive: 35.5 µM [activator, single point]"
8,CCN(Cc1nc2cc(Cl)ccc2c(=O)[nH]1)C(=O)COc1ccccc1Cc1ccccc1,inactive
9,O=S(=O)(c1ccccc1)N(CC1CO1)c1cccc2ccccc12 (stereo not given),inactive
10,Cc1ccn2c(NC(C)(C)C)c(-c3cccs3)nc2c1,inactive
11,CCN1CCN(C(=O)Cn2cnc3sc(C)c(S(=O)(=O)N4CCN(c5ncccn5)CC4)c3c2=O)CC1,"inconclusive: 16.4 µM [activator, partial curve, poor fit]"
12,CN(C(=O)c1cccc(C#N)c1)c1nnc(C2CCOC2)s1 (stereo not given),"inconclusive: 16.4 µM [activator, partial curve, poor fit]"
13,CN(C)c1ccc(NC2=C(Cl)C(=O)c3ccccc3C2=O)cc1,"inconclusive: 1.3 µM [activator, partial curve]"
14,Cc1cc[n+](C2=C([O-])c3ccccc3C(=O)/C2=N\S(=O)(=O)c2cccs2)cc1C,active: 23.1 µM
15,O=C(CSc1nc2ccccc2o1)c1ccccc1,"inconclusive: 23.1 µM [activator, partial curve]"
16,COCCNC(=O)C1CCN(C(=O)c2cc3sccc3n2Cc2ccc(F)cc2)CC1,"inconclusive: 18.3 µM [inhibitor, partial curve]"
17,COc1ccc(OC)c(NC(=O)CN(C)S(=O)(=O)c2ccc(Cl)cc2)c1,inactive
18,C(#Cc1c(-c2ccsc2)sc2ccccc12)c1ccsc1,"inconclusive: 18.3 µM [activator, partial curve, poor fit]"
19,CCOC(=O)C1CCCN(C(=O)c2cc(Nc3ccc(OC)c(OC)c3)nc3ccccc23)C1 (stereo not given),"inconclusive: 18.4 µM [inhibitor, partial curve, poor fit]"
20,Cc1cc(C)nc(N2CCCC(C(=O)NCCc3cccc(F)c3)C2)n1 (stereo not given),inactive
21,CC(C)(C)OC(=O)C[C@@H]1C/C=C\C[C@H](CC(=O)N[C@H](CO)Cc2ccccc2)C(=O)N[C@@H](Cc2c[nH]c3ccccc23)COC1=O,inactive
22,COc1ccccc1Nc1ccc(Nc2ccccc2OC)nn1,"inconclusive: 18.4 µM [activator, partial curve]"
23,Cc1ccc2nc(-c3ccccn3)cc(C(=O)NC3CCN(C)CC3)c2c1,"inconclusive: 29.1 µM [inhibitor, single point]"
24,COc1ccc(NC(=O)c2cc3c(=O)n4ccccc4nc3n2C)cc1OC,inactive

row,Structure (SMILES),Potency
1,Cc1cc(C)c2c(N)c(S(=O)c3ccc(C(C)(C)C)cc3)sc2n1 (stereo not given),inactive
2,O=C(NCc1ccccn1)C(=O)NCC1OCCN1S(=O)(=O)c1ccc(F)cc1 (stereo not given),inactive
3,COc1ccccc1C(CNC(=O)COc1ccccc1C)N1CCCC1 (stereo not given),inactive
4,COc1cc(SC)ccc1C(=O)Nc1cc(C)c(OCC(=O)N2CCOCC2)c(C)c1,active: 14.6 µM
5,COCc1nc2oc3ccc(C)cc3c(=O)c2cc1C(=O)OC,"inconclusive: 5.17 µM [activator, partial curve]"
6,CC(C)(C)OC(=O)N1CCCC1C(=O)O (stereo not given),"inconclusive: 29.1 µM [activator, single point]"
7,C[C@H](NC(=O)c1nc[nH]c1C(=O)N[C@@H](C)C(=O)OCc1ccccc1)C(=O)OCc1ccccc1,"inconclusive: 25.9 µM [inhibitor, single point]"
8,CCOc1cc(/C=C2\C(=O)N(Cc3ccc(C)cc3)C(C)=C2C(=O)OC)ccc1O,active: 13 µM
9,CC(C)c1ccc(-c2nnn(CC(=O)N3CCCCC3)n2)cc1,"inconclusive: 22.4 µM [activator, single point]"
10,CCN(CC(=O)NC(C)(C)C)Cc1nc2c(Br)cc(Br)cc2c(=O)[nH]1,inactive
11,COc1ccccc1C(=O)Nc1cccc(NC(=O)c2ccccc2C)c1,"inconclusive: 23.1 µM [inhibitor, single point]"
12,C=CCn1c(=O)c(C(=O)OCC)c(O)c2ccccc21,inactive
13,COc1cccc(-c2nc(NC3CCCC3)c3ccccc3n2)c1O,active: 23.1 µM
14,COC(=O)c1ccc2nc(NC(=O)C(C)(C)C)sc2c1,"inconclusive: 0.73 µM [activator, partial curve, poor fit]"
15,O=C(c1cccc(Oc2c(Cl)cccc2[N+](=O)[O-])c1)N1CCCCC1,"inconclusive: 29.1 µM [inhibitor, single point]"
16,CCc1ccc(S(=O)(=O)Nc2ccc(O)c3ccccc23)cc1,"inconclusive: 25.9 µM [inhibitor, single point]"
17,COc1ccc(OC)c2[nH]c(=O)c(CCNC(=O)C(=O)c3c[nH]c4ccccc34)cc12,"inconclusive: 23.1 µM [inhibitor, single point]"
18,NC(=O)C1CC12c1ccccc1-c1ccccc12 (stereo not given),inactive
19,COc1ccc(Cc2n[nH]c(=S)n2-c2ccc3c(c2)OCCO3)cc1,inactive
20,Cc1ccc(C(=O)OCc2cc(=O)n3c(C)csc3n2)s1,"inconclusive: 16.4 µM [activator, partial curve]"
21,O=C(Nc1nc2c(s1)CCCC2=O)c1cnccn1,"inconclusive: 9.2 µM [activator, partial curve]"
22,O=C(NC1CCCCC1)[C@H](CSCc1ccccc1)N1Cc2ccccc2C1=O,"inconclusive: 29.1 µM [inhibitor, single point]"
